Some of the results follow. These are further read-outs of the screen, such as a control signal, another cell line or another target. No call is given for them. The list favours compounds with an active or inconclusive main result. Words in brackets tell the shape of the fitted curve; partial curves, single points and poor fits give uncertain potencies.
Assay: qHTS Assay for Lipid Storage Modulators in Drosophila S3 Cells;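 on cell number change: cells counted by Cell Tracker Red CMTPX staining in the red channel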
Conditions: BODIPY lipid droplet fluorescence, 18-24 h; for cell number change: measured here: cell count max response, cells fed with added oleic acid
Method in brief: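 Drosophila S3 cells got compounds at several concentrations plus oleic acid (400 uM solution). Laser-scanning cytometry with 488 nm excitation read lipid droplets at 500-530 nm and cells at 575-640 nm. Percent activity was relative to 20 uM Triacsin C.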

[1] = measured here: cell number channel AC50, cells fed with added oleic acid
[2] = measured here: lipid fluorescence (Fed channel) AC50, cells fed with added oleic acid

| SMILES | cell number change | AC50 [1] | AC50 [2] |
| --- | --- | --- | --- |
| Cc1[nH]n(C)c(=O)c1C(=O)c1c(-c2ccccc2Cl)noc1C | -63.4% | 29.1 µM [falling, single point] | 29.1 µM [falling, single point] |
| CC(=O)CCc1ccc(Oc2nc(-c3cccnc3)nc3ccccc23)cc1 | 18.9% |  |  |
| O=C(NN1C(=O)/C(=C\c2cccnc2)SC1=S)C(c1ccccc1)c1ccccc1 | -26.1% |  | 16.4 µM [falling, single point] |
| Cc1ccc(SCC(=O)OCC(=O)N(CC(C)C)C2CCS(=O)(=O)C2)cc1C (stereo not given) | 175% | 18.4 µM [rising, single point] |  |
| OCC1(CCOc2ccccc2)CCN(Cc2ccccc2C(F)(F)F)CC1 | -2.75% |  |  |
| COc1ccccc1CNC(=O)CCC(=O)N1Cc2cccc(OC)c2Oc2ncccc21 | -20.3% |  | 29.1 µM [falling, single point] |
| COCC(=O)N1CCC(Oc2ccc(C(=O)N(C)C(C)c3ccon3)cc2)CC1 (stereo not given) | -6.93% |  | 6.51 µM [falling, single point] |
| N#CC(=C=[N-])c1nc2ccccc2nc1-[n+]1cccc(NC(=O)c2cccs2)c1 | -23.6% |  | 32.6 µM [falling, single point] |
| Cc1ccc(NC(=O)CN(C)C(=O)COC(=O)/C=C/c2cccs2)cc1 |  |  | 6.51 µM [rising, single point] |
| Cc1cccc(N(CC(=O)NCc2ccco2)C(=O)CNS(=O)(=O)c2ccc(F)cc2)c1 |  | 6.51 µM [rising, single point] | 29.1 µM [rising, single point] |
| CCC(=O)Nc1cccc(C(=O)/C=C/c2ccccc2)c1 | -38.2% |  |  |
| COC(=O)c1ccc(N)c(N=CC2=C(O)CC(C)(C)CC2=O)c1 |  |  | 25.9 µM [falling, single point] |
| Cc1ccccc1NC(=O)c1ccc([N+](=O)[O-])o1 | -31.5% | 6.51 µM [falling, partial curve, poor fit] | 29.1 µM [falling, single point] |
| O=C1c2ccccc2C(=O)N1CCCn1ccnc1 | -5.51% |  | 6.51 µM [rising, single point] |
| Brc1ccc(CNc2ccc3ncccc3c2)cc1 | -21.8% |  | 18.4 µM [falling, single point] |
| COc1ccc(-c2ncccc2OC(=O)C23CC4CC(CC(C4)C2)C3)cc1 | -26.6% |  | 16.4 µM [falling, single point] |
| CN(C)c1ccc(S(=O)(=O)NCC(=O)N2CCN(c3ccccc3)CC2)cc1[N+](=O)[O-] | 29.7% |  | 18.4 µM [rising, single point] |
| CC(=O)Nc1nc2n(n1)C(c1ccc(F)cc1)C=C(c1ccccc1)N2 (stereo not given) | -22.8% |  | 0.184 µM [rising, full curve] |
| O=C(Nc1ccc(C(F)(F)F)cc1Cl)c1ccc(Cn2cc(Br)cn2)o1 | 4.21% |  | 25.9 µM [falling, single point] |
| COC(=O)C1CCN(S(=O)(=O)Cc2ccccc2Cl)CC1 | 11.9% |  | 29.1 µM [falling, single point] |
| CCOC(=O)CC1(NC(=O)C2CCC(=O)N(Cc3ccccc3F)C2)CCCCC1 (stereo not given) | -76.9% | 29.1 µM [falling, single point] | 18.4 µM [falling, single point] |

Reprinted from the listing, 5 compounds:

| SMILES | cell number change | AC50 [1] | AC50 [2] |
| --- | --- | --- | --- |
| Cc1ccccc1NC(=O)c1ccc([N+](=O)[O-])o1 | -31.5% | 6.51 µM [falling, partial curve, poor fit] | 29.1 µM [falling, single point] |
| O=C1c2ccccc2C(=O)N1CCCn1ccnc1 | -5.51% |  | 6.51 µM [rising, single point] |
| Brc1ccc(CNc2ccc3ncccc3c2)cc1 | -21.8% |  | 18.4 µM [falling, single point] |
| COc1ccc(-c2ncccc2OC(=O)C23CC4CC(CC(C4)C2)C3)cc1 | -26.6% |  | 16.4 µM [falling, single point] |
| CN(C)c1ccc(S(=O)(=O)NCC(=O)N2CCN(c3ccccc3)CC2)cc1[N+](=O)[O-] | 29.7% |  | 18.4 µM [rising, single point] |

Further records

| SMILES | cell number change | AC50 [1] | AC50 [2] |
| --- | --- | --- | --- |
| Cc1nn2c(=O)cc(CSc3ccccc3NC(=O)c3ccccc3F)nc2s1 | -21.4% |  |  |
| CCCCCCCC(=O)OC(CN1CCCCC1)CN1CCCC1=O (stereo not given) | 10.6% |  | 6.51 µM [falling, single point] |
| COC(=O)C1=C(C)N(c2cccc3ccccc23)C(=O)C1 | 6.88% |  |  |
| CN(CC(=O)Nc1ccc(Cl)c(C(F)(F)F)c1)C(=O)c1cc(-c2ccncc2)nc2ccccc12 | -16.9% |  |  |
| Cc1ccc(S(=O)(=O)n2nc(OC(=O)c3cccc(F)c3)cc2N)cc1 |  | 0.82 µM [rising, full curve, poor fit] | 0.58 µM [falling, single point] |
| Cc1ccc(NC(=O)/C(C#N)=C/c2ccsc2)c(C)c1 | -7.71% |  | 2.91 µM [rising, partial curve] |
| COc1cc(/C=N/NC(=S)Nc2cccc(S(=O)(=O)N(C)C)c2)cc(OC)c1O | -20.9% |  | 29.1 µM [falling, single point] |
| c1ccc(-c2oc3ncnc(NCCCN4CCOCC4)c3c2-c2ccccc2)cc1 | -39.4% | 20.6 µM [falling, partial curve] | 29.1 µM [falling, single point] |
| Cc1nn(C(C)(C)C)c(N)c1-c1ccccc1 | 1.93% |  |  |
| COc1ccc(C(=O)Oc2cccc(Nc3ncnc4ccccc34)c2)cc1OC | -27.7% |  |  |
| Cc1sc(NC(=O)C2C3CCC(O3)C2C(=O)O)nc1-c1ccc(CC(C)C)cc1 (stereo not given) | 2.59% |  | 29.1 µM [falling, partial curve] |
| CCC(CC)C(=O)c1c[nH]c(C(=O)NCC2CCCO2)c1 (stereo not given) | -16.8% |  | 2.06 µM [rising, partial curve, poor fit] |
| C=CCSc1nnc(NC(=O)Cc2ccc(OC)c(OC)c2)s1 | 42.8% | 29.1 µM [rising, single point] |  |
| O=C(COC(=O)c1ccc(Cl)c(S(=O)(=O)N2CCCCC2)c1)NCC1CCCCC1 | -1.07% |  | 0.231 µM [falling, full curve, poor fit] |
| CCn1cc(/C=N/NS(=O)(=O)c2ccc(OC)cc2)c(C)n1 | 49.7% |  |  |
| COC(=O)c1ccc(/C=C2\SC(=S)N(CCCC(=O)NCCCN3CCOCC3)C2=O)cc1 | 15.4% |  | 5.17 µM [rising, single point] |
| COCCCNC(=O)c1c(N)n(/N=C/c2cccs2)c2nc3ccccc3nc12 | -22.1% |  |  |
| COc1ccc(OCc2nnc(SCC(=O)N3CCCc4ccccc43)n2-c2ccc(C)cc2)cc1 | 20% | 0.58 µM [rising, partial curve] |  |
| COc1ccc(CCN2C(=O)CC(N3CCOCC3)C2=O)cc1 (stereo not given) | 17.7% |  | 6.51 µM [rising, partial curve] |
| O=C(CC1S/C(=N\S(=O)(=O)c2ccc(F)cc2)N(c2ccccc2)C1=O)Nc1ccccc1 (stereo not given) | -64.4% | 14.6 µM [falling, partial curve, poor fit] | 29.1 µM [falling, single point] |
| Cc1ccc(S(=O)(=O)N(C)C)cc1NC(=O)COC(=O)CN1C(=O)c2ccccc2C1=O | -36.7% | 4.61 µM [falling, full curve] | 5.17 µM [falling, partial curve, poor fit] |

| SMILES | cell number change | AC50 [1] | AC50 [2] |
| --- | --- | --- | --- |
| COc1ccc(C2NC(C(=O)O)Cc3c2[nH]c2ccccc32)cc1OC (stereo not given) | 34.3% | 14.6 µM [rising, partial curve, poor fit] |  |
| CCn1c(SCC(=O)N/N=C/C=C/c2ccco2)nc2ccccc21 | -19.7% |  | 0.00461 µM [falling, full curve, poor fit] |
| CN(C)/C=N/c1c(C#N)cnn1-c1ncnc2sc(-c3ccccc3)cc12 | 2.92% |  | 0.326 µM [rising, full curve, poor fit] |
| COc1ccc(CC(=O)NNC(=S)Nc2ccc(Br)cc2)cc1 | -10.7% |  | 11.6 µM [rising, partial curve] |
| CCOC(=O)CCCSc1nc(-c2ccc3c(c2)OCO3)cc(C(F)(F)F)c1C#N | 23.7% |  | 0.0366 µM [rising, full curve, poor fit] |
| CN(C)CCCN1C(=O)CSC1c1ccccc1 (stereo not given) | -12.1% |  | 18.4 µM [falling, partial curve, poor fit] |
| COc1cc(-c2nc(-c3ccccc3)c(-c3cccs3)[nH]2)cc(OC)c1OC | 16.1% |  | 2.06 µM [rising, partial curve] |
| CC(C)Cc1nc2sc3c(=O)[nH]cnc3c2c2c1CCC2 | -15.7% |  |  |
| O=C(O)C1C2C=CC3(CN(CC(O)COc4ccccc4)C(=O)C13)O2 (stereo not given) | -67.6% | 29.1 µM [falling, single point] | 18.4 µM [falling, single point] |
| O=C1CCCCC/C1=N/Nc1ccc(OCc2ccccc2)cc1 | -13.8% |  | 10.3 µM [falling, single point] |
| COc1cccc(C2c3c(-c4ccccc4O)n[nH]c3C(=O)N2Cc2ccco2)c1 (stereo not given) | -7.87% |  | 0.461 µM [rising, single point] |
| CCO[C@@H]1OC(C(=O)O)=C[C@H](c2coc3ccccc3c2=O)[C@H]1CCCO | -5.83% |  | 29.1 µM [falling, single point] |
| Cn1c(=S)n(/N=C/c2cccs2)c2ccccc21 | 10.4% |  |  |
| O=C1C2CC=CCC2C(=O)N1c1ccc(NCCc2ccccc2F)c([N+](=O)[O-])c1 (stereo not given) | 26.5% |  | 2.06 µM [rising, full curve] |
| Cc1nc(=O)c(-c2ccccc2)c(C)n1-c1ccc(S(N)(=O)=O)cc1 | -8.32% |  | 4.61 µM [falling, full curve, poor fit] |
| CCOc1ccccc1C(=O)NC(C)c1ccc2c(c1)OCO2 (stereo not given) | 49.2% | 1.3 µM [rising, full curve, poor fit] | 1.16 µM [rising, full curve] |
| Cc1cccc(NC(=O)c2ccc(Cl)c(S(=O)(=O)N3CCCCC3)c2)n1 |  |  | 5.8 µM [rising, single point] |
| Cc1ccc(C(=O)NCC(=O)N(C)Cc2ccc(Cl)cc2Cl)s1 | 11.6% |  | 4.11 µM [rising, single point] |
| O=C(N/N=C/c1c(O)n(-c2ccccc2Cl)c(=O)c2ccccc12)C1COc2ccccc2O1 (stereo not given) | 2.1% |  | 29.1 µM [falling, single point] |

Source: PubChem BioAssay AID2685 (National Center for Advancing Translational Sciences (NCATS), 2010)
